Measured values as given in patent publication US11142533B2, “Macrocycles for use in treating disease” (TURNING POINT THERAPEUTICS, INC., priority 2019, dated 2021).
Some of these results come from one statement about several compounds together.

Amino acid sequences for entries named in this document (tags omitted).
UniProt Q9UM73, whole entry, stated change not applied: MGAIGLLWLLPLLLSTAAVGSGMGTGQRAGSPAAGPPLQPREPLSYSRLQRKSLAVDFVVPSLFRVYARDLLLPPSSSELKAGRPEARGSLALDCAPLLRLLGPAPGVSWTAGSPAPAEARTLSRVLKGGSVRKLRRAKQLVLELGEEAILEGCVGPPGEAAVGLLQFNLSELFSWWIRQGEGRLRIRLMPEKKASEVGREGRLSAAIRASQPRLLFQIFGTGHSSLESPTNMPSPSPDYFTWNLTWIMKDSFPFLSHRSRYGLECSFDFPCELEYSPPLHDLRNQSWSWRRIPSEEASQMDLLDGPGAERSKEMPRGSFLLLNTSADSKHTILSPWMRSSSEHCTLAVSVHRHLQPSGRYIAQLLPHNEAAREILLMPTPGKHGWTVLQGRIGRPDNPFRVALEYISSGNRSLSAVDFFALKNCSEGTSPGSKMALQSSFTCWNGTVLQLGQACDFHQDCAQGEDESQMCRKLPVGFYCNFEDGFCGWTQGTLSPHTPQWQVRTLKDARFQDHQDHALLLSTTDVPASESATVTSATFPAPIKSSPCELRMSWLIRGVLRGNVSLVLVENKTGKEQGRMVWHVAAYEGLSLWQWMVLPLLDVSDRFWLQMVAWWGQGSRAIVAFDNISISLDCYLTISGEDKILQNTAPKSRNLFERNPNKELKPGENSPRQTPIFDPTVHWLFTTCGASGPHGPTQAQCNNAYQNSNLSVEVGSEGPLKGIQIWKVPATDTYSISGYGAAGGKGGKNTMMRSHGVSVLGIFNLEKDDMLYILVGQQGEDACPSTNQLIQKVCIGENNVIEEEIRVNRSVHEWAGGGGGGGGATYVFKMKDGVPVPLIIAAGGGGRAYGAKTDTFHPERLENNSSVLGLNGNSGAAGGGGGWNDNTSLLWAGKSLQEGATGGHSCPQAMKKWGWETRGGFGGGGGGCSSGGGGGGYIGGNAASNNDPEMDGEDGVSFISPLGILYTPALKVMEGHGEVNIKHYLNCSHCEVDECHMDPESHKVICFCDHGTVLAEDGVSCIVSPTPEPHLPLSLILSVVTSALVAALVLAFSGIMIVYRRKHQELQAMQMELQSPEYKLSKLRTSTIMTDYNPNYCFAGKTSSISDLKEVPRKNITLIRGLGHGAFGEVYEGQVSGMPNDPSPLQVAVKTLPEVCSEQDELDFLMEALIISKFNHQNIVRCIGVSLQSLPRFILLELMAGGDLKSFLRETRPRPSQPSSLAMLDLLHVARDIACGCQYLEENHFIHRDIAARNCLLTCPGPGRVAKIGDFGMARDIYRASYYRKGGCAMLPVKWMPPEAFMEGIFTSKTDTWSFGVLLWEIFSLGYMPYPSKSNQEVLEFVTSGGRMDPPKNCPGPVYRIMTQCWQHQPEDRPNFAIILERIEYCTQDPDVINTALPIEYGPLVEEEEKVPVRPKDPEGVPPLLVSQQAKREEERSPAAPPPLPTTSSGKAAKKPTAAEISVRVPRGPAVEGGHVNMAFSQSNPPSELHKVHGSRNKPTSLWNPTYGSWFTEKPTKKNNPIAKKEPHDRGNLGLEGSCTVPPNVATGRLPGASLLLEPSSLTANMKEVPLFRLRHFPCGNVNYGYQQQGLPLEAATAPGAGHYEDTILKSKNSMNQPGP

Biological target: ALK and mutant ALKs (Homo sapiens, UniProt Q9UM73)
Assay: Enzymatic kinase activities, summary statement
Type: biochemical
Conditions: summary of Table 1; read-out: kinase inhibitory activities on ALK and mutant ALKs, IC50s

O=C1NCC2(CC2)COc2ccc(F)cc2CN2c3nc4c1cnn4cc3OC[C@H]2C(F)F [Compound 2, (16′S)-16′-(Difluoromethyl)-12′-fluoro-4′H,5′H,6′H,8′H,14′H,16′H,17′H-spiro[cyclopropane-1,7′-[1,19](metheno)[1,4]oxazino[3,4-j]pyrazolo[4,3-g][1,5,9,11]benzoxatriazacyclotetradecin]-4′-one]
IC50: < 10 nM
